Laboratory results taken from US20100068806A1, “NOVEL METHODS AND REAGENTS DIRECTED TO PRODUCTION OF CELLS” (SUOMEN PUNAINEN RISTI, VERIPALVELU, priority 2007, published 2010).

Test system: glycoconjugates (N-glycans, O-glycans, glycosphingolipids) of hESC, EB, st.3, CB CD34+ & CD133+, CB MNC, BM & CB MSC, adipo/osteo cells
Test: Summary of occurrence of terminal glycan epitopes in glycoconjugates of stem cells and differentiated cells (Table 28)
Parameters: species or system human
Settings: prefix N = N-glycans

LacdiNAc
+/−: Occurrence of terminal epitope, BM & CB MSC (BM & CB MSC, O = O-glycans, L = glycosphingolipids) | Occurrence of terminal epitope, CB CD34+ & CD133+ (CB CD34+ & CD133+, O = O-glycans, L = glycosphingolipids) | Occurrence of terminal epitope, adipo/osteo (cells differentiated into adipocyte or osteoblast direction from MSC) | Occurrence of terminal epitope, st.3 (stage 3 differentiated cells, O = O-glycans, L = glycosphingolipids)
